The results in this text go back to the supplement of paper PMC12024529.

Counter-ions that a name gives are not always drawn. The list shows a part of the results. Baselines shift from plate to plate; read single values as rough.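 HEK293 lines stably express B-domain-deleted factor VIII fused to Gaussia luciferase, wild type or a misfolding-prone missense mutant. Scores equal triplicate-well mean luminescence minus DMSO mean, divided by DMSO standard deviation; scores of 2 or higher are hits. Low scores may indicate reduced secretion or worse cell viability.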

In the assay the test system is HEK293 WT BDD-FVIII-Gluc. The assay is described as follows: secreted FVIII-Gluc luciferase Z-score vs DMSO control; higher = more FVIII-Gluc secretion. Conditions: 5 µM; 24 h.
For `Cc1c(C(=O)NN2CCCCC2)nn(-c2ccc(Cl)cc2Cl)c1-c1ccc(Cl)cc1`, the “secreted FVIII-Gluc luciferase Z-score” value was inactive: -4.39.
In the case of `N=C(N)NC(=O)c1nc(Cl)c(N)nc1N` [Amiloride hydrochloride (Midamor)], the “secreted FVIII-Gluc luciferase Z-score” value is inactive: -0.942.
For `COc1cc2nccc(Oc3ccc(NC(=O)C4(C(=O)Nc5ccc(F)cc5)CC4)cc3)c2cc1OC` [XL-184 (Cabozantinib)] the value was inactive: -4.31.
For `CC(=O)NS(=O)(=O)c1ccc(NC(=O)c2ccccc2C(=O)O)cc1` [Phthalylsulfacetamide] the value was inactive: -0.664; for `O=c1ccn([C@@H]2O[C@H](CO)[C@@H](O)[C@H]2O)c(=O)[nH]1` [Uridine], inactive: 1.66.
For the molecule `C[C@@H](Oc1cc(-c2cnn(C3CCNCC3)c2)cnc1N)c1c(Cl)ccc(F)c1Cl`, the “secreted FVIII-Gluc luciferase Z-score” value is inactive: -4.65.
For `Cc1cc(-n2c(=O)[nH]c(=O)n(C)c2=O)ccc1Oc1ccc(SC(F)(F)F)cc1` [toltrazuril] the value was inactive: -0.327; for `O=c1[nH]c(=O)n([C@H]2C[C@H](O)[C@@H](CO)O2)cc1F` [Floxuridine], inactive: -11.
For `N=C(N)NC(=N)N1CCOCC1` [Moroxydine] the value was inactive: 0.215; for `CCCCCOC(=O)Nc1nc(=O)n([C@@H]2O[C@H](C)[C@@H](O)[C@H]2O)cc1F` [Capecitabine (Xeloda)], inactive: 0.488; for `CCc1nc(N)nc(N)c1-c1ccc(Cl)cc1` [Pyrimethamine], inactive: -2.58.
The figure for `CC[C@H]1OC(=O)[C@H](C)[C@@H](O[C@H]2C[C@@](C)(OC)[C@@H](O)[C@H](C)O2)[C@H](C)[C@@H](O[C@@H]2O[C@H](C)C[C@H](N(C)C)[C@H]2O)[C@](C)(O)C[C@@H](C)CN(C)[C@H](C)[C@@H](O)[C@]1(C)O` [Azithromycin (Zithromax)] is inactive: -4.25.
Turning to `CCCCNc1cc(C(=O)O)cc(S(N)(=O)=O)c1Oc1ccccc1` [Bumetanide], the “secreted FVIII-Gluc luciferase Z-score” value is inactive: 0.547.
The figure for `C#C[C@]1(O)CC[C@H]2[C@@H]3CCc4cc(O)ccc4[C@H]3CC[C@@]21C` [Ethinyl Estradiol] is inactive: -0.724; for `CC1(C)S[C@@H]2[C@H](NC(=O)C(C(=O)O)c3ccccc3)C(=O)N2[C@H]1C(=O)O` (some centres undefined) [Carbenicillin disodium] it is inactive: -0.446.
The figure for `Cc1ccc(C)c(OCCCC(C)(C)C(=O)O)c1` [Gemfibrozil (Lopid)] is inactive: -1.53; for `CO[C@H]1/C=C/O[C@@]2(C)Oc3c(C)c(O)c4c(O)c(c5c(nc6cc(C)ccn65)c4c3C2=O)NC(=O)/C(C)=C\C=C\[C@H](C)[C@H](O)[C@@H](C)[C@@H](O)[C@@H](C)[C@H](OC(C)=O)[C@@H]1C` [Rifaximin (Xifaxan)] it is inactive: 1.44.
The figure for `CC(C)(Sc1cc(C(C)(C)C)c(O)c(C(C)(C)C)c1)Sc1cc(C(C)(C)C)c(O)c(C(C)(C)C)c1` [Probucol] is inactive: -0.707; for `C[C@H](N)[C@H](O)c1cccc(O)c1` [Metaraminol Bitartrate] it is inactive: -0.491; for `CCOC(=O)[C@H](CCc1ccccc1)N[C@@H](C)C(=O)N1Cc2cc(OC)c(OC)cc2C[C@H]1C(=O)O` [Moexipril HCl] it is inactive: 0.805.
Turning to `Nc1nc(N)c2nc(-c3ccccc3)c(N)nc2n1` [triamterene], the “secreted FVIII-Gluc luciferase Z-score” value is inactive: 0.146.
For the molecule `CNC[C@H](O)c1ccc(O)c(O)c1` [Epinephrine bitartrate (Adrenalinium)], the “secreted FVIII-Gluc luciferase Z-score” value was inactive: -0.185.
The figure for `OC(CCN1CCCC1)(c1ccccc1)C1CCCCC1` (centres undefined) [Procyclidine HCl] is inactive: -1.78; for `C=CC(=O)N1CCC[C@@H](n2nc(-c3ccc(Oc4ccccc4)cc3)c3c(N)ncnc32)C1` it is inactive: -6.78.
The figure for `CCn1cc(C(=O)O)c(=O)c2cc(F)c(N3CCNCC3)nc21` [Enoxacin (Penetrex)] is inactive: -1.24; for `CCCNC(C)C(=O)Nc1c(C)csc1C(=O)OC` (centres undefined) [Articaine HCl] it is inactive: -0.662.
With `C[C@H](CCC(=O)O)[C@H]1CC[C@H]2[C@@H]3[C@@H](O)C[C@@H]4C[C@H](O)CC[C@]4(C)[C@H]3CC[C@]12C` [Ursodiol (Actigal Urso)], the “secreted FVIII-Gluc luciferase Z-score” value is inactive: -1.87.
The figure for `O[C@@H]1CO[C@H]2[C@@H]1OC[C@@H]2O` [Isosorbide] is active: 2.31; for `N=C(N)c1ccc(OCCCCCOc2ccc(C(=N)N)cc2)cc1` [Pentamidine] it is inactive: -2.22.
As for `CC(C)(C#N)c1cc(Cn2cncn2)cc(C(C)(C)C#N)c1` [Anastrozole], the “secreted FVIII-Gluc luciferase Z-score” value is inactive: 0.471.
For `C[C@]12CC[C@@H]3c4ccc(O)cc4CC[C@H]3[C@@H]1C[C@@H](O)[C@@H]2O` [Estriol] the value was inactive: -2.9; for `OCC(CO)N[C@H]1C[C@](O)(CO)[C@@H](O)[C@H](O)[C@H]1O` [Voglibose], active: 10.8; for `CCC(=O)OCC(=O)[C@@]1(OC(=O)CC)[C@@H](C)C[C@H]2[C@@H]3CCC4=CC(=O)C=C[C@]4(C)[C@@]3(Cl)[C@@H](O)C[C@@]21C` [Beclomethasone dipropionate], active: 13.
The figure for `Clc1ccc(C(c2ccccc2Cl)C(Cl)Cl)cc1` (centres undefined) [Mitotane (Lysodren)] is inactive: -5.4.
As for `c1ccc2c(c1)CCCC2C1=NCCN1` (centres undefined) [tetrahydrozoline hydrochloride], the “secreted FVIII-Gluc luciferase Z-score” value was inactive: -0.998.
With `Cc1nnc(C(C)C)n1C1C[C@H]2CC[C@@H](C1)N2CC[C@H](NC(=O)C1CCC(F)(F)CC1)c1ccccc1` (stereo in doubt) [Maraviroc], the “secreted FVIII-Gluc luciferase Z-score” value was inactive: -1.84.
The figure for `NC(N)=Nc1nc(CSCC/C(N)=N/S(N)(=O)=O)cs1` [Famotidine (Pepcid)] is inactive: 0.469; for `CC(C)c1nc(CN(C)C(=O)N[C@@H](CCN2CCOCC2)C(=O)N[C@H](CC[C@H](Cc2ccccc2)NC(=O)OCc2cncs2)Cc2ccccc2)cs1` [Cobicistat (GS-9350)] it is inactive: -3.84.
Regarding `Nc1ccc(C(=O)O)c(O)c1` [Aminosalicylate sodium], the “secreted FVIII-Gluc luciferase Z-score” value was inactive: -1.12.
